# Test results published in publication PMC8384837.
# Changes are numbered by the printed parent chain. The list shows a part of the results. For part of these data: At the low end of the ranking the order means little.
# Tests used:
# Settings in all cases: yeast three-hybrid, YBZ-1, SC-Leu-His + 0.5 mM 3-AT, 4 days
# [1] = target: T1, PUM1 PUF domain R5-AAR C1007A + R1008A + Q1011R (Homo sapiens) (UniProt Q14671)
# T1 sequence: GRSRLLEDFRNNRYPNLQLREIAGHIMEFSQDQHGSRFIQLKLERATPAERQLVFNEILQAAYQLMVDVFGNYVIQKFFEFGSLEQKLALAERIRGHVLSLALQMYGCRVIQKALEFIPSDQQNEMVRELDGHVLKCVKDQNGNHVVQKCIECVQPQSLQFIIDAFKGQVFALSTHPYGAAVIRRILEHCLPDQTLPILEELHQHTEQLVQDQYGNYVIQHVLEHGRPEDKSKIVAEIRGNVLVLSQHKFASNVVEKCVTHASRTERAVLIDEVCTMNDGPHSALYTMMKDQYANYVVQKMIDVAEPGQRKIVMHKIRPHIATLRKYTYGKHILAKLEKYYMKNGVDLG
# [2] = target: T2, PUM1 PUF domain R5-AFF C1007A + R1008F + Q1011F (UniProt Q14671)
# T2 sequence: T1 sequence with A181F, R184F
# [3] = target: T3, PUM1 PUF domain R5-AFY C1007A + R1008F + Q1011Y (UniProt Q14671)
# T3 sequence: T1 sequence with A181F, R184Y
# [4] = target: T4, PUM1 PUF domain R5-AGR C1007A + R1008G + Q1011R (UniProt Q14671)
# T4 sequence: T1 sequence with A181G
# [5] = target: T5, PUM1 PUF domain R5-AKR C1007A + R1008K + Q1011R (Homo sapiens) (UniProt Q14671)
# T5 sequence: T1 sequence with A181K
# [6] = target: T6, PUM1 PUF domain R5-AQR C1007A + R1008Q + Q1011R (UniProt Q14671)
# T6 sequence: T1 sequence with A181Q
# [7] = target: T7, PUM1 PUF domain R5-ARR C1007A + Q1011R (Homo sapiens) (UniProt Q14671)
# T7 sequence: T1 sequence with A181R
# [8] = target: T8, PUM1 PUF domain R5-ASR C1007A + R1008S + Q1011R (Homo sapiens) (UniProt Q14671)
# T8 sequence: T1 sequence with A181S
# [9] = target: T9, PUM1 PUF domain R5-ATR C1007A + R1008T + Q1011R (UniProt Q14671)
# T9 sequence: T1 sequence with A181T
# [10] = target: T10, PUM1 PUF domain R5-AYF C1007A + R1008Y + Q1011F (Homo sapiens) (UniProt Q14671)
# T10 sequence: T1 sequence with A181Y, R184F
# [11] = target: T11, PUM1 PUF domain R5-AYY C1007A + R1008Y + Q1011Y (Homo sapiens) (UniProt Q14671)
# T11 sequence: T1 sequence with A181Y, R184Y
# [12] = target: T12, PUM1 PUF domain R5-CGR R1008G + Q1011R (UniProt Q14671)
# T12 sequence: T1 sequence with A180C, A181G
# [13] = target: T13, PUM1 PUF domain R5-CRR Q1011R (UniProt Q14671)
# T13 sequence: T1 sequence with A180C, A181R
# [14] = target: T14, PUM1 PUF domain R5-CSR R1008S + Q1011R (Homo sapiens) (UniProt Q14671)
# T14 sequence: T1 sequence with A180C, A181S
# [15] = target: T15, PUM1 PUF domain R5-DLR C1007D + R1008L + Q1011R (UniProt Q14671)
# T15 sequence: T1 sequence with A180D, A181L
# [16] = target: T16, PUM1 PUF domain R5-DQR C1007D + R1008Q + Q1011R (Homo sapiens) (UniProt Q14671)
# T16 sequence: T1 sequence with A180D, A181Q
# [17] = target: T17, PUM1 PUF domain R5-DRR C1007D + Q1011R (UniProt Q14671)
# T17 sequence: T1 sequence with A180D, A181R
# [18] = target: T18, PUM1 PUF domain R5-ELW C1007E + R1008L + Q1011W (UniProt Q14671)
# T18 sequence: T1 sequence with A180E, A181L, R184W
# [19] = target: T19, PUM1 PUF domain R5-ERK C1007E + Q1011K (Homo sapiens) (UniProt Q14671)
# T19 sequence: T1 sequence with A180E, A181R, R184K
# [20] = target: T20, PUM1 PUF domain R5-FKR C1007F + R1008K + Q1011R (UniProt Q14671)
# T20 sequence: T1 sequence with A180F, A181K
# [21] = target: T21, PUM1 PUF domain R5-FRG C1007F + Q1011G (Homo sapiens) (UniProt Q14671)
# T21 sequence: T1 sequence with A180F, A181R, R184G
# [22] = target: T22, PUM1 PUF domain R5-FRI C1007F + Q1011I (Homo sapiens) (UniProt Q14671)
# T22 sequence: T1 sequence with A180F, A181R, R184I
# [23] = target: T23, PUM1 PUF domain R5-FRN C1007F + Q1011N (Homo sapiens) (UniProt Q14671)
# T23 sequence: T1 sequence with A180F, A181R, R184N
# [24] = target: T24, PUM1 PUF domain R5-FRR C1007F + Q1011R (Homo sapiens) (UniProt Q14671)
# T24 sequence: T1 sequence with A180F, A181R
# [25] = target: T25, PUM1 PUF domain R5-FRS C1007F + Q1011S (Homo sapiens) (UniProt Q14671)
# T25 sequence: T1 sequence with A180F, A181R, R184S
# [26] = target: T26, PUM1 PUF domain R5-FRT C1007F + Q1011T (Homo sapiens) (UniProt Q14671)
# T26 sequence: T1 sequence with A180F, A181R, R184T
# [27] = target: T27, PUM1 PUF domain R5-FRV C1007F + Q1011V (Homo sapiens) (UniProt Q14671)
# T27 sequence: T1 sequence with A180F, A181R, R184V
# [28] = target: T28, PUM1 PUF domain R5-FRW C1007F + Q1011W (UniProt Q14671)
# T28 sequence: T1 sequence with A180F, A181R, R184W
# [29] = target: T29, PUM1 PUF domain R5-GAR C1007G + R1008A + Q1011R (Homo sapiens) (UniProt Q14671)
# T29 sequence: T1 sequence with A180G
# [30] = target: T30, PUM1 PUF domain R5-GGR C1007G + R1008G + Q1011R (Homo sapiens) (UniProt Q14671)
# T30 sequence: T1 sequence with A180G, A181G
# [31] = target: T31, PUM1 PUF domain R5-GKC C1007G + R1008K + Q1011C (Homo sapiens) (UniProt Q14671)
# T31 sequence: T1 sequence with A180G, A181K, R184C
# [32] = target: T32, PUM1 PUF domain R5-GKH C1007G + R1008K + Q1011H (Homo sapiens) (UniProt Q14671)
# T32 sequence: T1 sequence with A180G, A181K, R184H
# [33] = target: T33, PUM1 PUF domain R5-GKN C1007G + R1008K + Q1011N (UniProt Q14671)
# T33 sequence: T1 sequence with A180G, A181K, R184N
# [34] = target: T34, PUM1 PUF domain R5-GKR C1007G + R1008K + Q1011R (Homo sapiens) (UniProt Q14671)
# T34 sequence: T1 sequence with A180G, A181K
# [35] = target: T35, PUM1 PUF domain R5-GKS C1007G + R1008K + Q1011S (UniProt Q14671)
# T35 sequence: T1 sequence with A180G, A181K, R184S
# [36] = target: T36, PUM1 PUF domain R5-GLW C1007G + R1008L + Q1011W (Homo sapiens) (UniProt Q14671)
# T36 sequence: T1 sequence with A180G, A181L, R184W
# [37] = target: T37, PUM1 PUF domain R5-GMR C1007G + R1008M + Q1011R (Homo sapiens) (UniProt Q14671)
# T37 sequence: T1 sequence with A180G, A181M
# [38] = target: T38, PUM1 PUF domain R5-GPR C1007G + R1008P + Q1011R (Homo sapiens) (UniProt Q14671)
# T38 sequence: T1 sequence with A180G, A181P
# [39] = target: T39, PUM1 PUF domain R5-GQA C1007G + R1008Q + Q1011A (Homo sapiens) (UniProt Q14671)
# T39 sequence: T1 sequence with A180G, A181Q, R184A
# [40] = target: T40, PUM1 PUF domain R5-GRF C1007G + Q1011F (Homo sapiens) (UniProt Q14671)
# T40 sequence: T1 sequence with A180G, A181R, R184F
# [41] = target: T41, PUM1 PUF domain R5-GRR C1007G + Q1011R (Homo sapiens) (UniProt Q14671)
# T41 sequence: T1 sequence with A180G, A181R
# [42] = target: T42, PUM1 PUF domain R5-GRW C1007G + Q1011W (Homo sapiens) (UniProt Q14671)
# T42 sequence: T1 sequence with A180G, A181R, R184W
sequence,measurement,setting,value
GGCUAGAACUAGUGGAUCCCCCGGCGCCCGGCGGCUCGAGCCCGGGUAAGUGUGAAUAGUCUGCAUGCCGCCGGGCGCCAUGCCUGCAGGUCGACUCUAGAAAACAUG,binding signal (log2 enrichment (interaction score)),[1],-1.82
same,binding signal (log2 enrichment (interaction score)),[2],-5.66
same,binding signal (log2 enrichment (interaction score)),[3],-3.16
same,binding signal (log2 enrichment (interaction score)),[4],-2.88
same,binding signal (log2 enrichment (interaction score)),[5],-0.7
same,binding signal (log2 enrichment (interaction score)),[6],-3.4
same,binding signal (log2 enrichment (interaction score)),[7],-1.87
same,binding signal (log2 enrichment (interaction score)),[8],-1.48
same,binding signal (log2 enrichment (interaction score)),[9],-2.03
same,binding signal (log2 enrichment (interaction score)),[10],-0.79
same,binding signal (log2 enrichment (interaction score)),[11],-0.77
same,binding signal (log2 enrichment (interaction score)),[12],-6.8
same,binding signal (log2 enrichment (interaction score)),[13],-2.31
same,binding signal (log2 enrichment (interaction score)),[14],-0.83
same,binding signal (log2 enrichment (interaction score)),[15],< -8.62
same,binding signal (log2 enrichment (interaction score)),[16],-0.9
same,binding signal (log2 enrichment (interaction score)),[17],-5.03
same,binding signal (log2 enrichment (interaction score)),[18],< -7.45
same,binding signal (log2 enrichment (interaction score)),[19],-0.9
same,binding signal (log2 enrichment (interaction score)),[20],-2.61
same,binding signal (log2 enrichment (interaction score)),[21],-1.67
same,binding signal (log2 enrichment (interaction score)),[22],-0.86
same,binding signal (log2 enrichment (interaction score)),[23],-1.56
same,binding signal (log2 enrichment (interaction score)),[24],0.33
same,binding signal (log2 enrichment (interaction score)),[25],-1.51
same,binding signal (log2 enrichment (interaction score)),[26],-1.95
same,binding signal (log2 enrichment (interaction score)),[27],-1.89
same,binding signal (log2 enrichment (interaction score)),[28],< -7.16
same,binding signal (log2 enrichment (interaction score)),[29],-1.76
same,binding signal (log2 enrichment (interaction score)),[30],-0.79
same,binding signal (log2 enrichment (interaction score)),[31],-0.51
same,binding signal (log2 enrichment (interaction score)),[32],-1.64
same,binding signal (log2 enrichment (interaction score)),[33],-2.75
same,binding signal (log2 enrichment (interaction score)),[34],-0.14
same,binding signal (log2 enrichment (interaction score)),[35],-4.1
same,binding signal (log2 enrichment (interaction score)),[36],-1.74
same,binding signal (log2 enrichment (interaction score)),[37],-0.66
same,binding signal (log2 enrichment (interaction score)),[38],-0.67
same,binding signal (log2 enrichment (interaction score)),[39],-0.43
same,binding signal (log2 enrichment (interaction score)),[40],-1.5
same,binding signal (log2 enrichment (interaction score)),[41],-0.32
same,binding signal (log2 enrichment (interaction score)),[42],0.06

# Eight entries from above in a different format:
sequence	measurement	setting	value
GGCUAGAACUAGUGGAUCCCCCGGCGCCCGGCGGCUCGAGCCCGGGUAAGUGUGAAUAGUCUGCAUGCCGCCGGGCGCCAUGCCUGCAGGUCGACUCUAGAAAACAUG	binding signal (log2 enrichment (interaction score))	[2]	-5.66
same	binding signal (log2 enrichment (interaction score))	[3]	-3.16
same	binding signal (log2 enrichment (interaction score))	[12]	-6.8
same	binding signal (log2 enrichment (interaction score))	[21]	-1.67
same	binding signal (log2 enrichment (interaction score))	[23]	-1.56
same	binding signal (log2 enrichment (interaction score))	[29]	-1.76
same	binding signal (log2 enrichment (interaction score))	[30]	-0.79
same	binding signal (log2 enrichment (interaction score))	[39]	-0.43
